For some of these results: The name of at least one read-out is uncertain. For some of these results: At least one structure is not confirmed: it was looked up by name or label, or the drawing left a doubt.
What was measured:
[1] = each dose, serum levels by HPLC; cited from earlier work
[2] = tested on: gene-modified allodepleted cells; test: Induction of apoptosis with AP20187 in gene-modified allodepleted cells (annexin V/7-AAD); type: cell-based, human; conditions: reactivated cells sorted for CD25, CD25 positive cells
Method: Suicide gene functionality was assessed by adding a small molecule synthetic homodimerizer, AP20187 (Ariad Pharmaceuticals; Cambridge, Mass.), at 10 nM final concentration the day following CD19 immunomagnetic selection. Cells were stained with annexin V and 7-amino-actinomycin (7-AAD)(BD Pharmingen) at 24 hours and analyzed by flow cytometry. Cells negative for both annexin V and 7-AAD were considered viable, cells that were annexin V positive were apoptotic, and cells that were both annexin V and 7-AAD positive were necrotic. The percentage killing induced by dimerization was corrected for baseline viability as follows: Percentage killing=100%−(% Viability in AP20187-treated cells÷% Viability in non-treated cells).
Cells were maintained in T cell medium containing 50 U/ml IL-2 until 22 days after transduction. […] CD19 expression and suicide gene function in both reactivated and non-reactivated cells were measured on day 24 or 25 post transduction.
In some experiments, cells also were cultured for 3 weeks post transduction and stimulated with 30G-irradiated allogeneic PBMC at a responder:stimulator ratio of 1:1. […] Killing was measured by annexin V/7-AAD staining at 24 hours, and the effect of dimerizer on bystander virus-specific T cells was assessed by pentamer analysis on AP20187-treated and untreated cells.

HEK293T/16 cells = test: Secreted alkaline phosphatase (SEAP) reporter-based surrogate killing assay; type: cell-based, human; conditions: relative to wild type
Method: FIG. 45 provides an analysis of SEAP assays. To examine both basal signaling and AP1903 induced activity, […] early-passage HEK293T/16 cells were co-transfected with various amount of wildtype Caspase and 500 ng of an expression plasmid that uses an SRα promoter to drive SEAP, a marker for cell viability. […] of the mixture was seeded onto each well of a 96-well plate. 100-ul of AP1903 was added at least three hours post-transfection. After addition of AP1903 for at least 24 hours, 100-ul of supernatant was transferred to a 96-well plate and heat denatured at 68 ? C for 30 minutes to inactivate endogenous alkaline phosphatases. For the assay, 4-methylumbelliferyl phosphate substrate was hydrolyzed by SEAP to 4-methylumbelliferon, a metabolite that can be excited with 364 nm and detected with an emission filter of 448 nm. Since SEAP is used as a marker for cell viability, reduced SEAP reading corresponds with increased icaspase-9 activities.
(50A) To examine both basal signaling and AP1903-induced CaspaClDe activity, 10^6 early-passage HEK293T/17 cells were co-transfected with 2 μg of inducible caspase variants along with 500 ng of an expression plasmid using an SRα promoter to transcriptionally regulate SEAP, a surrogate marker for cell viability. […] Since SEAP is used as a surrogate marker for cell viability, a reduced SEAP reading corresponds to increased caspase-9 activity. […]

Molecule | effect on IC50 / sensitivity to AP1903 (in words) (HEK293T/16 cells) | further results
CC[C@H](C(=O)N1CCCC[C@H]1C(=O)O[C@H](CCc1ccc(OC)c(OC)c1)c1cccc(OCC(=O)NCCNC(=O)COc2cccc([C@@H](CCc3ccc(OC)c(OC)c3)OC(=O)[C@@H]3CCCCN3C(=O)[C@@H](CC)c3cc(OC)c(OC)c(OC)c3)c2)c1)c1cc(OC)c(OC)c(OC)c1 (relative stereo) [AP1903, 2-Piperidinecarboxylic acid, 1-[(2S)-1-oxo-2-(3,4,5-trimethoxyphenyl)butyl]-, 1,2-ethanediylbis[imino(2-oxo-2,1-ethanediyl)oxy-3,1-phenylene[(1R)-3-(3,4-dimethoxyphenyl)propylidene]] ester, [2S-[1(R*),2R*[S*[S*[1(R*),2R*]]]]]-(9Cl)] | – | time at which close to Cmax levels are reached [1]: ≤ 30 min
CC[C@H](C(=O)N1CCCC[C@H]1C(=O)O[C@H](CCc1ccc(OC)c(OC)c1)c1cccc(OCC(=O)NCC(CNC(=O)COc2cccc([C@@H](CCc3ccc(OC)c(OC)c3)OC(=O)[C@@H]3CCCCN3C(=O)[C@@H](CC)c3cc(OC)c(OC)c(OC)c3)c2)CN(C)C)c1)c1cc(OC)c(OC)c(OC)c1 [AP20187] | – | killing efficiency [2]: about 93%0.2±1.2
T317A: chimeric modified caspase-9 polypeptide (protein) VDGFGDVGALESLRGNADLAYILSMEPCGHCLIINNVNFCRESGLRTRTGSNIDCEKLRRRFSSLHFMVEVKGDLTAKKMVLALLELARQDHGALDCCVVVILSHGCQASHLQFPGAVYGTDGCPVSVEKIVNIFNGTSCPSLGGKPKLFFIQACGGEQKDHGFEVASTSPEDESPGSNPEPDAAPFQEGLRTFDQLDAISSLPTPSDIFVSYSTFPGFVSWRDPKSGSWYVETLDDIFEQWAHSEDLQSLLLRVANAVSVKGIYKQMPGCFNFLRKKLFFKTSASRA | almost equally sensitive to AP1903 as wildtype caspase-9 | –
T317S: chimeric modified caspase-9 polypeptide (protein) VDGFGDVGALESLRGNADLAYILSMEPCGHCLIINNVNFCRESGLRTRTGSNIDCEKLRRRFSSLHFMVEVKGDLTAKKMVLALLELARQDHGALDCCVVVILSHGCQASHLQFPGAVYGTDGCPVSVEKIVNIFNGTSCPSLGGKPKLFFIQACGGEQKDHGFEVASTSPEDESPGSNPEPDASPFQEGLRTFDQLDAISSLPTPSDIFVSYSTFPGFVSWRDPKSGSWYVETLDDIFEQWAHSEDLQSLLLRVANAVSVKGIYKQMPGCFNFLRKKLFFKTSASRA | almost equally sensitive to AP1903 as wildtype caspase-9 | –
